Results taken from US20120053227A1, “miR-33 INHIBITORS AND USES THEREOF” (New York University, priority 2010, published 2012).
At least one structure is not confirmed: it was looked up by name or label, or the drawing left a doubt.

Test system: mouse peritoneal macrophages
Test: miR-33 and SREBF2 expression in cholesterol depleted mouse peritoneal macrophages
Assay type: cell-based
Conditions: cholesterol depletion; SREBF1 not upregulated

SMILES: CCC(C)(C)C(=O)O[C@H]1C[C@@H](C)C=C2C=C[C@H](C)[C@H](CC[C@@H]3C[C@@H](O)CC(=O)O3)[C@H]21 [simvastatin]
- expression of miR-33 and SREBF2: robust upregulation
